Measured values taken from the supplement of paper PMC12067093, “Discovery and optimisation of a covalent ligand for TRIM25 and its application to targeted protein ubiquitination” (Chemical Science, 2025).
The other results are listed elsewhere or left out.

Sequences of proteins named here, by UniProt entry; tags and fusion partners are left off. A change or cut given only in a name is not applied to a line headed by its entry.
UniProt Q8N6R0: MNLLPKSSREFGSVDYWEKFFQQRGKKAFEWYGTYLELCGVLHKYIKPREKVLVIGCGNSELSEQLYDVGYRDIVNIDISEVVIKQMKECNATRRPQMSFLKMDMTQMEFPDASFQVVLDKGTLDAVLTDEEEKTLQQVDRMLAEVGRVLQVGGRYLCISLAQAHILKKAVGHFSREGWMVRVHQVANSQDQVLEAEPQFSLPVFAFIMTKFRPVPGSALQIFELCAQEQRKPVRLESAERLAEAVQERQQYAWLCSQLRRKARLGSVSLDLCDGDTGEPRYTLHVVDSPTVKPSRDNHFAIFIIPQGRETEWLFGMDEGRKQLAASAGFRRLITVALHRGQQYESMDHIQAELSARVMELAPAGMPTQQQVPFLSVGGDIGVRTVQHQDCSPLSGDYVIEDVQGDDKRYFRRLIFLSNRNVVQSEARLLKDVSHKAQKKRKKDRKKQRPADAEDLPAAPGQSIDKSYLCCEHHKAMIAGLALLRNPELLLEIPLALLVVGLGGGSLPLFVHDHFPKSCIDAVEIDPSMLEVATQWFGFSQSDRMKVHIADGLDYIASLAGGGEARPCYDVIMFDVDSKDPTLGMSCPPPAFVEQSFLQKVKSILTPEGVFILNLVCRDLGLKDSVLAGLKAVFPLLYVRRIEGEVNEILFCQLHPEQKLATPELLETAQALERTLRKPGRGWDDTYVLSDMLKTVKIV
UniProt P33992: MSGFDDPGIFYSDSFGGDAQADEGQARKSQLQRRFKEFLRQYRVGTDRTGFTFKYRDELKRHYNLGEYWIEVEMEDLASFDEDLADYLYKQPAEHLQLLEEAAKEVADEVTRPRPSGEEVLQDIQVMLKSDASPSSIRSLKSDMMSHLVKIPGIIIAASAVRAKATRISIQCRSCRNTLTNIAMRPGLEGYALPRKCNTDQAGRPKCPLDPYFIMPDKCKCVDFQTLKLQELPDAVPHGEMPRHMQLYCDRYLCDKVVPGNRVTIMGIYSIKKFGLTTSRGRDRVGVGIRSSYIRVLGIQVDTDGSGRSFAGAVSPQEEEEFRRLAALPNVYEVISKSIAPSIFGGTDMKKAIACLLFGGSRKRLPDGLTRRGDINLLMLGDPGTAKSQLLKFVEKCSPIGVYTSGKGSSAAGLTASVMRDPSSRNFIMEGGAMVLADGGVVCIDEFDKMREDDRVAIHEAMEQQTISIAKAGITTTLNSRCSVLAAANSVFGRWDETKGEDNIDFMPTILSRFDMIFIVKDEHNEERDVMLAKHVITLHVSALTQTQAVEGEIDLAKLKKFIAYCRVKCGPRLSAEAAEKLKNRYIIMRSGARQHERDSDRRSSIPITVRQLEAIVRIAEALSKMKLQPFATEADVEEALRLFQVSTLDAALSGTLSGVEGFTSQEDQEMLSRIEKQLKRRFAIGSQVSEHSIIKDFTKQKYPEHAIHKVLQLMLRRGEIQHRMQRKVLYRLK
UniProt Q96RQ3: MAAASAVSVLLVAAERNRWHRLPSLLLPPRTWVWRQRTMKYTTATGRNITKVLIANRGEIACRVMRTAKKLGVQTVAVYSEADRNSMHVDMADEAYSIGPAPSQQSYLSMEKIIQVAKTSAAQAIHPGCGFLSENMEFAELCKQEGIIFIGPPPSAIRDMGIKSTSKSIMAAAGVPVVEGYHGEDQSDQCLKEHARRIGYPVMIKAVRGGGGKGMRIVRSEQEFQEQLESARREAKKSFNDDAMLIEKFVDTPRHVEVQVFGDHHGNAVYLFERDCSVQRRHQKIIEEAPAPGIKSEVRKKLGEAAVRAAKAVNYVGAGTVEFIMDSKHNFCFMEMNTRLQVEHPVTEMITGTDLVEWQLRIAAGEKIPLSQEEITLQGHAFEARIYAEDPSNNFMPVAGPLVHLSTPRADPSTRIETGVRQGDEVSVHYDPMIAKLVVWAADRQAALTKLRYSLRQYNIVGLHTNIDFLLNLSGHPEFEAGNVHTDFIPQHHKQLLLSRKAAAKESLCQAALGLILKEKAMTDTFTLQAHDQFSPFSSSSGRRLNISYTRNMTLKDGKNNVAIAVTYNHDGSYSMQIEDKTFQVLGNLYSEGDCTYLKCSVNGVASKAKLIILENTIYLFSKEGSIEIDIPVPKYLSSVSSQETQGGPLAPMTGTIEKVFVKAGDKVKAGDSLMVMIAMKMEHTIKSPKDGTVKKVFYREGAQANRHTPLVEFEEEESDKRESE
UniProt P49736, whole entry, looked up: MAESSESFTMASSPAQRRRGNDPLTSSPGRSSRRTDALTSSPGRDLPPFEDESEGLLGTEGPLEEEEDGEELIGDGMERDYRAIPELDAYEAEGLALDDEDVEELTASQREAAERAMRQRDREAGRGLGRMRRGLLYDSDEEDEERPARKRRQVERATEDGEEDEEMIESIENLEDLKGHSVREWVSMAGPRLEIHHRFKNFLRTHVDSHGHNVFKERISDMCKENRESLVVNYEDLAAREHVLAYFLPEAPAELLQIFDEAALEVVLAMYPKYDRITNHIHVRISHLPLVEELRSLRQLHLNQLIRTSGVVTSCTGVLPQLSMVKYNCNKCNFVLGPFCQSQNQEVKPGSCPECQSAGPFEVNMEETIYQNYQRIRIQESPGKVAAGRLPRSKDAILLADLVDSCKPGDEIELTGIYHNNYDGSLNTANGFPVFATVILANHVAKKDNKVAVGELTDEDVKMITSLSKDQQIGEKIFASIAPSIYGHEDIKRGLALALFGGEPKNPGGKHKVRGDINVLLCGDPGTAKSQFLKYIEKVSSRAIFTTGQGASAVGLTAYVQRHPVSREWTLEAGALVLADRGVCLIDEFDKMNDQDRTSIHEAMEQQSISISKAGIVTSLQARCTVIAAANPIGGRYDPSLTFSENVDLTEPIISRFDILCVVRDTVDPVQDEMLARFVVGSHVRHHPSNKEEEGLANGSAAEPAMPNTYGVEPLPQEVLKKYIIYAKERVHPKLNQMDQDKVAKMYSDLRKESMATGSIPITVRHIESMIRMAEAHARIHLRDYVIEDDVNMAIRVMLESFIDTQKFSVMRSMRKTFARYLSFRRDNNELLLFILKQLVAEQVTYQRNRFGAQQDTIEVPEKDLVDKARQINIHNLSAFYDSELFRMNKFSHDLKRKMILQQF
UniProt Q9HCC0: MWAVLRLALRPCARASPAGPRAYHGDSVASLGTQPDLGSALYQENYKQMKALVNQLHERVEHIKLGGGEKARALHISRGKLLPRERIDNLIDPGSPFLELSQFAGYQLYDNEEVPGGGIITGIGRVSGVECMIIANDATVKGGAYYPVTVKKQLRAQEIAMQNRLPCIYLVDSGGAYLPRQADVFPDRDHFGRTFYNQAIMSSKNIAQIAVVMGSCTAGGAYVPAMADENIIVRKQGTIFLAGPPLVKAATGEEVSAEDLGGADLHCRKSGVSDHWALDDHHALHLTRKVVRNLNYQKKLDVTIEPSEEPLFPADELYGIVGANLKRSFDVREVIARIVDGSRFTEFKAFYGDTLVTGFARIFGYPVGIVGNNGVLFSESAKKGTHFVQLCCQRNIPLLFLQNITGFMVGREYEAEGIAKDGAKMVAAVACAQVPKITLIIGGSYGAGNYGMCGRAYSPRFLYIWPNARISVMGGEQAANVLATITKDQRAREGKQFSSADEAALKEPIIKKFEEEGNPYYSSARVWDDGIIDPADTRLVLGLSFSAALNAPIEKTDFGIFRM
UniProt O60318: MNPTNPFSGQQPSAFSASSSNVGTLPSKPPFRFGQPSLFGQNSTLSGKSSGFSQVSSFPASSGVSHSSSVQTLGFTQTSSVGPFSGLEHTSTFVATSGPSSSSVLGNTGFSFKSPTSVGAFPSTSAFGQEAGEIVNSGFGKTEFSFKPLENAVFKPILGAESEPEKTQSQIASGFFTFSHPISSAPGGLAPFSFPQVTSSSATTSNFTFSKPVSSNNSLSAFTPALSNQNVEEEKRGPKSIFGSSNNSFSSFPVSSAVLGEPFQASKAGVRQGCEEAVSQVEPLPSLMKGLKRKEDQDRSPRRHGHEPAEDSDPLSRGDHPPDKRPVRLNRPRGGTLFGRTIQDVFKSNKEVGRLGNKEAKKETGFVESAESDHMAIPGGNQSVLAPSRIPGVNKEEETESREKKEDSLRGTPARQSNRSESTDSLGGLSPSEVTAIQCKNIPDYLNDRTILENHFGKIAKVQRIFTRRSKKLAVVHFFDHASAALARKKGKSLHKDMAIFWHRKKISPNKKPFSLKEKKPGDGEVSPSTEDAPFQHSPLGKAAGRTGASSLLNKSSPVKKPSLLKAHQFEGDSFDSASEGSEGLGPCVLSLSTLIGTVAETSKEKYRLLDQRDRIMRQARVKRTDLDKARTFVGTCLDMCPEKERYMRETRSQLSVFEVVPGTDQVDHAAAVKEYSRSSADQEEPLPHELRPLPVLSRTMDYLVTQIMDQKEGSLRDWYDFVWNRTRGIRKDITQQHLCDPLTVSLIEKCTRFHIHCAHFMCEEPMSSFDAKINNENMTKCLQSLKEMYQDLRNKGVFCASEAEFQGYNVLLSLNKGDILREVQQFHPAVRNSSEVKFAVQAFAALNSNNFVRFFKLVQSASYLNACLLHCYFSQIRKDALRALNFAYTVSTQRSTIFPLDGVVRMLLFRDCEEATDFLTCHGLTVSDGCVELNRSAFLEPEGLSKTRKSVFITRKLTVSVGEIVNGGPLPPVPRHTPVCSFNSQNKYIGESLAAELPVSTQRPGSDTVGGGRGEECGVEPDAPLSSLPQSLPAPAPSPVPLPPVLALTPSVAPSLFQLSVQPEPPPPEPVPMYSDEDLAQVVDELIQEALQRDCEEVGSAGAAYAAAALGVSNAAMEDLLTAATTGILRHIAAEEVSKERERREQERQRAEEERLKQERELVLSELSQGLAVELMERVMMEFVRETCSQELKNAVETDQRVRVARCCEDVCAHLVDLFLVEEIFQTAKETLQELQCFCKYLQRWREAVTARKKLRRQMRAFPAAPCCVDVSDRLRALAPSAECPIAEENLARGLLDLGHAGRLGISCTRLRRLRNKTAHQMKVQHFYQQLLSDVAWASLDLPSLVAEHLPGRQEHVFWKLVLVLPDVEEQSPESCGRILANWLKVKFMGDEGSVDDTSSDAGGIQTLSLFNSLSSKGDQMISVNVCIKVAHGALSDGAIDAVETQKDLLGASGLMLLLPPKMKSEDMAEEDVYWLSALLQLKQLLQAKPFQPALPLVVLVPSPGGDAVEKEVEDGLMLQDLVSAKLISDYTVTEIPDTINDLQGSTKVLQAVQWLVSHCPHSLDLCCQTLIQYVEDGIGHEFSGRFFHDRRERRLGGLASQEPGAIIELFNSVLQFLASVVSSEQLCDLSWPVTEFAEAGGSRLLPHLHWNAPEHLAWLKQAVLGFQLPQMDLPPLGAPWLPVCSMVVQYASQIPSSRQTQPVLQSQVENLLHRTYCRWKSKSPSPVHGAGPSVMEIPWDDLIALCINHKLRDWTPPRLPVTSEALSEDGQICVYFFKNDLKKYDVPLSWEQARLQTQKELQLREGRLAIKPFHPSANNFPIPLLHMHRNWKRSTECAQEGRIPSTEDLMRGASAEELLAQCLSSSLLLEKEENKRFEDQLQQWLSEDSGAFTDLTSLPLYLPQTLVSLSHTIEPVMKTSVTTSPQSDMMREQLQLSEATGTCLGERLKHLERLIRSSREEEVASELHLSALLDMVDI
UniProt P23368: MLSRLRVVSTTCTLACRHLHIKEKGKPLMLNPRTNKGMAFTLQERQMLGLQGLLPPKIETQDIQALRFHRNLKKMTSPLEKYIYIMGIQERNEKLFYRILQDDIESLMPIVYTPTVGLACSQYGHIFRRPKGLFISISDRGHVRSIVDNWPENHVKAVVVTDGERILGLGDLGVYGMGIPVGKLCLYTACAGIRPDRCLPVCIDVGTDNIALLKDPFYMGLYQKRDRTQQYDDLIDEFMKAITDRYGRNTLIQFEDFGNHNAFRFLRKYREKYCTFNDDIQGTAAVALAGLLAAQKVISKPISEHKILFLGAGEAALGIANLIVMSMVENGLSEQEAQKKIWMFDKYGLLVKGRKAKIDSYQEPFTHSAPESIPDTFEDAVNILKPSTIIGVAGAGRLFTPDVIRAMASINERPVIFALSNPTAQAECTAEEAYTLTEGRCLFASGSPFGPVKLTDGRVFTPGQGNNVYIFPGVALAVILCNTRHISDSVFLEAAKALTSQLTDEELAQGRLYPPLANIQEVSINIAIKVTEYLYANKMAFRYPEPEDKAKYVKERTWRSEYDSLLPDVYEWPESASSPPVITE
UniProt Q6P1Q9: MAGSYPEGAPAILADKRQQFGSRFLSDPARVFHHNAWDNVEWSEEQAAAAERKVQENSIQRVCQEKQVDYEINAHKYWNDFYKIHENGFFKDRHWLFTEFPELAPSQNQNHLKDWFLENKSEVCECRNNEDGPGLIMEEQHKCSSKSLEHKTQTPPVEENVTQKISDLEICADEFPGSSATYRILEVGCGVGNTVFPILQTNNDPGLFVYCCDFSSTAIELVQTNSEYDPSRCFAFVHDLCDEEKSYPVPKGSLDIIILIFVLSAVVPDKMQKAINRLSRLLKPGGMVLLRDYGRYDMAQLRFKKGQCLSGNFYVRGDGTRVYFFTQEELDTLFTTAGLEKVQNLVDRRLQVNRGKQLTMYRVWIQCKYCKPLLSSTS

Compound: CC1Cc2ccccc2N1C(=O)C1CCCN(C1)C(=O)CCl (mixture of isomers) [TRIM25 ligand 11 (diastereomer mixture)]
Experiment: probe-labelled cysteine peptide fold change vs DMSO (competition) (log2 fold change); higher = less target engagement (more negative = stronger competition)
Details: THP-1, incubation time: 4 h
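Also: competitive chemoproteomic profiling in live THP-1 cells with an iodoacetamide desthiobiotin (IA-DTB) probe, comparing probe-labelled peptide intensities in compound-treated cells against DMSO-treated controls.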

Target	probe-labelled cysteine peptide fold change (10 µM)	probe-labelled cysteine peptide fold change (50 µM)
METTL13_Q8N6R0_39_AFEWYGTYLELCGVLHK (UniProt Q8N6R0)	0.117	0.173
MCM5_P33992_397_CSPIGVYTSGK (UniProt P33992)	-0.0957	0.18
MCM4_P33991_509_AEINILLCGDPGTSK (UniProt P33991)	-0.0724	0.0734
MCCC1_Q96RQ3_190_SIMAAAGVPVVEGYHGEDQSDQCLK (UniProt Q96RQ3)	-0.00871	-0.0916
MEPCE_Q7L2J0_452_GRDVLDLGCNVGHLTLSIACK (UniProt Q7L2J0)	-0.015	-0.00453
MED15_Q96RN5_618_QQYLCQPLLDAVLANIR (UniProt Q96RN5)	-0.00606	0.36
MCM2_P49736_661_FDILCVVRDTVDPVQDEMLAR (UniProt P49736)	-0.495	-0.0098
MCM2_P49736_584_GVCLIDEFDK (UniProt P49736)	0.102	0.0268
MED14_O60244_1433_QGECTIFAAVR (UniProt O60244)	0.177	0.249
MCM4_P33991_309_TSQLIPEMQEAFFQCQVCAHTTR (UniProt P33991)	-0.0176	0.177
METTL3_Q86U44_483_EHCLVGVK (UniProt Q86U44)	0.0167	0.012
METTL13_Q8N6R0_226_FRPVPGSALQIFELCAQEQR (UniProt Q8N6R0)	0.025	-0.292
MCCC2_Q9HCC0_431_MVAAVACAQVPK (UniProt Q9HCC0)	0.0133	-0.0336
MBTPS2_O43462_386_SSSSSFCIIPSLETHTR (UniProt O43462)	-0.0619	
MDH2_P40926_212_TIIPLISQCTPK (UniProt P40926)	-0.0535	-0.102
METTL18_O95568_48_CSAEQFDLPQDHLWEHK (UniProt O95568)	-0.285	
MED14_O60244_779_LYECVLEFAR (UniProt O60244)	0.0771	0.172
MEFV_O15553_773_NTAPLTICPVGGQGPD (UniProt O15553)	-0.315	-0.444
MEFV_O15553_332_DSCSFPEAVSGHPQASGSR (UniProt O15553)	0.0103	-0.244
MECP2_P51608_429_GGSLESDGCPKEPAK (UniProt P51608)	-0.274	-0.613
MCM6_Q14566_158_THPVHPELVSGTFLCLDCQTVIRDVEQQFK (UniProt Q14566)	-0.241	-0.0415
MCM5_P33992_221_CVDFQTLK (UniProt P33992)	-0.0141	0.0951

Target	probe-labelled cysteine peptide fold change (10 µM)	probe-labelled cysteine peptide fold change (50 µM)
MEPCE_Q7L2J0_522_SCFPASLTASR (UniProt Q7L2J0)	-0.0818	-0.208
MCM5_P33992_249_HMQLYCDR (UniProt P33992)	0.00743	0.057
MCM3AP_O60318_931_DCEEATDFLTCHGLTVSDGCVELNR (UniProt O60318)	0.0707	-0.2
MEPCE_Q7L2J0_452_DVLDLGCNVGHLTLSIACK (UniProt Q7L2J0)	0.295	0.0215
MGAT2_Q10469_378_IFHAGDCGMHHK (UniProt Q10469)	-0.0585	-0.21
MCM6_Q14566_242_CDFTGTLIVVPDVSK (UniProt Q14566)	0.132	-0.00888
MED21_Q13503_103_LEEENHEAATCLEDVVYR (UniProt Q13503)	0.393	0.228
MCM6_Q14566_161_THPVHPELVSGTFLCLDCQTVIR (UniProt Q14566)	0.203	0.298
MED7_O43513_223_DAALCVLIDEMNERP (UniProt O43513)	0.0565	-0.131
MCCC2_Q9HCC0_391+392_KGTHFVQLCCQR (UniProt Q9HCC0)	0.233	0.218
MED1_Q15648_373_FYAALPGQQHCYFLNK (UniProt Q15648)	0.148	0.228
MEGF8_Q7Z7M0_930_KGDAACSR (UniProt Q7Z7M0)	0.023	0.311
METTL14_Q9HCE5_288_EHCLMGIK (UniProt Q9HCE5)	-0.0706	0.0358
METAP2_P50579_380_GVVHDDMECSHYMK (UniProt P50579)	-0.21	-0.365
MCM4_P33991_509_FRAEINILLCGDPGTSK (UniProt P33991)	-0.162	0.0508
MCM4_P33991_212_LGEINVIGEPFLNVNCEHIK (UniProt P33991)	-0.00252	-0.103
MCCC2_Q9HCC0_267_AATGEEVSAEDLGGADLHCRK (UniProt Q9HCC0)	-0.538	-0.417
MCTS1_Q9ULC4_14_ENVSNCIQLK (UniProt Q9ULC4)	-0.0863	-0.0885
ME2_P23368_202_CLPVCIDVGTDNIALLK (UniProt P23368)	-0.0273	0.133
MBNL2_Q5VZF2_43_SCQVENGR (UniProt Q5VZF2)	-0.14	-0.146
ME2_P23368_198+202_CLPVCIDVGTDNIALLK (UniProt P23368)	-0.102	-0.0992
MCCC1_Q96RQ3_600_CSVNGVASK (UniProt Q96RQ3)	0.0764	0.152

Target	probe-labelled cysteine peptide fold change (10 µM)	probe-labelled cysteine peptide fold change (50 µM)
MCM6_Q14566_351_NLYHNLCTSLFPTIHGNDEVK (UniProt Q14566)	0.107	0.0102
MCM6_Q14566_242_AEAVESAQAGDKCDFTGTLIVVPDVSK (UniProt Q14566)	-0.114	-0.0827
MCM3_P25205_319_AILCLLLGGVER (UniProt P25205)	-0.0958	0.126
MCM5_P33992_482_CSVLAAANSVFGR (UniProt P33992)	0.14	0.166
MDN1_Q9NU22_3308_LDNLTCHLLK (UniProt Q9NU22)	0.0686	0.129
MGAT2_Q10469_210_LGCINAEYPDSFGHYR (UniProt Q10469)	0.0504	0.0641
METAP2_P50579_263_IIDCAFTVTFNPK (UniProt P50579)	0.0495	0.114
METTL2B_Q6P1Q9_233_CFAFVHDLCDEEK (UniProt Q6P1Q9)	0.0278	0.14
METTL13_Q8N6R0_652_RIEGEVNEILFCQLHPEQK (UniProt Q8N6R0)	0.0307	0.221
METTL3_Q86U44_336_YVHYEIDACMDSEAPGSK (UniProt Q86U44)	-0.032	0.0204
MEN1_O00255_334_TYYRDEHIYPYMYLAGYHCR (UniProt O00255)	-0.0493	-0.182
MDN1_Q9NU22_3308_MDRLDNLTCHLLK (UniProt Q9NU22)	-0.0746	-0.191
ME3_Q16798_145_FMPIVYTPTVGLACQHYGLTFR (UniProt Q16798)	0.131	0.131
MCM3_P25205_119_TLTSCFLSCVVCVEGIVTK (UniProt P25205)	0.214	-0.00361
MCAT_Q8IVS2_120_TVHCQPAIFVASLAAVEK (UniProt Q8IVS2)	-0.234	-0.236
MELTF_P08582_603_SEDYELLCPNGAR (UniProt P08582)	0.0149	0.0229
MBTD1_Q05BQ5_185_VEVPNTDCSLPTK (UniProt Q05BQ5)	0.226	0.0407
MED17_Q9NVC6_363_QCPEDHLYVLEHNLHLLIR (UniProt Q9NVC6)	-0.0543	-0.123
MDN1_Q9NU22_3263_EELHQLQCEWK (UniProt Q9NU22)	0.0646	0.0191
MED23_Q9ULK4_1109_FNEFPNPAAHALHVTCVELMALAVSGK (UniProt Q9ULK4)	0.0161	0.0357
MESD_Q14696_180_CADVTLEGQVYPGK (UniProt Q14696)	-0.0104	-0.0213
MEFV_O15553_315+327_CHAQEGDPVDGTCVR (UniProt O15553)	0.0356	-0.404

Target	probe-labelled cysteine peptide fold change (10 µM)	probe-labelled cysteine peptide fold change (50 µM)
MEPCE_Q7L2J0_419_KFQYGNYCK (UniProt Q7L2J0)	-0.0656	-0.123
MED23_Q9ULK4_284_DMVCNMLGLNK (UniProt Q9ULK4)	0.0384	0.326
MCM3_P25205_360_YVLCTAPR (UniProt P25205)	-0.0719	-0.0649
MCM3AP_O60318_439_SESTDSLGGLSPSEVTAIQCK (UniProt O60318)	-0.0427	-0.262
MCM5_P33992_207_CPLDPYFIMPDK (UniProt P33992)	0.027	-0.00496
METTL5_Q9NRN9_38_LLLEQYPTRPHIAACMLYTIHNTYDDIENK (UniProt Q9NRN9)	0.0663	0.0583
MCM5_P33992_197_KCNTDQAGRPK (UniProt P33992)	-0.16	-0.194
MED14_O60244_635_AGEMCAFNK (UniProt O60244)	-0.0268	-0.0566
MELTF_P08582_216_CLAEGAGDVAFVK (UniProt P08582)	-0.159	-0.0352
METTL13_Q8N6R0_273_LGSVSLDLCDGDTGEPR (UniProt Q8N6R0)	-0.0246	0.00617
MCCC2_Q9HCC0_392_KGTHFVQLCCQR (UniProt Q9HCC0)	-0.0222	-0.0984
MDN1_Q9NU22_3195_ELLCQLLTSLHHFVGEGESK (UniProt Q9NU22)	0.0155	-0.348
MCM5_P33992_355_AIACLLFGGSRK (UniProt P33992)	-0.506	-0.414
MCMBP_Q9BTE3_602_CLSLSAGQTTLSR (UniProt Q9BTE3)	0.0958	-0.0789
METTL7B_Q6UX53_202+203_HIGDGCCLTR (UniProt Q6UX53)	0.0706	-0.0175
ME1_P48163_240_YGMNCLIQFEDFANVNAFR (UniProt P48163)	0.11	0.112
MDN1_Q9NU22_3985_KFEAVLSEPCR (UniProt Q9NU22)	-0.0833	-0.136
ME1_P48163_110_FMPIVYTPTVGLACQQYSLVFR (UniProt P48163)	-0.087	0.158
METAP1_P53582_14_VCETDGCSSEAK (UniProt P53582)	-0.0223	-0.0699
